# Source: PubChem BioAssay AID1347423 (Functional Genomics Laboratory (NCATS/FGL), 2020)
# The campaign covered roughly 52,000 sequences. About 210 (0.4%) were called active.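 The calls were made as follows: active = gene whose silencing raises cell survival under the drug, median off-target-corrected z-score across its silencing RNAs 2 or more; inactive = the rest.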 Some of the results follow.
# Assay: Resistance to Poly (ADP-Ribose) Polymerase inhibitor: Gene Identification via Genome-wide siRNA Screen
# Settings: mouse BRCA2 R2336H ES cells, olaparib, CellTiter-Glo viability; stronger effect = higher value
# Procedure, shortened: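 Mouse BRCA2 R2336H ES cells were reverse-transfected with siRNA (20 nM final), treated at 48 h with 500 nM olaparib, and read by CellTiter-Glo after 72 h. Scores: MAD-based z per siRNA, median per gene, seed off-target correction.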
row,Sequence,z-score
1,GGCGGAUGACCUAGAGGAUTT against BC013672,inactive: 0.23
2,CGAUGAAAUGAUAUGCAAATT against Jarid1b,inactive: 1.61
3,GGAAAUAAAGUGAGUUUUGTT against 5730466H23Rik,inactive: 2.37
4,CCUGCUCCUUACAUCUCGCTT against A430097D04Rik,inactive: -0.0558
5,CCUACAAACCAGAAGAGGUTT against Akr1c19,inactive: 0.291
6,CCGCUUUCUUGCCAUUCACTT against Olfr576,inactive: 0.31
7,GCAUUUUGAGAAAGCAAUUTT against 2410005O16Rik,inactive: 0.565
8,GGCUUUUGUAACGAAAGGCTT against Wif1,inactive: 2.08
9,GGGUGUGAAGUCAUGGUAUTT against 6430573F11Rik,inactive: 0.498
10,GGAAUCCUUGAGACAGAUUTT against Impg1,inactive: -2.3
11,GCCACUAGCCUUUCAAAAGTT against Muc1,inactive: 1.6
12,GGAUGUAGGUGACUGUCGATT against 4932411K12,inactive: -2.19
13,GGAAGAUGAUCUUGACCAGTT against 4930455F23Rik,inactive: 2.96
14,GGUCAUUCUGUACAUACAUTT against Slc37a3,inactive: -2.47
15,CCAUGUUCAGAAGAGAAUATT against Igsf11,inactive: -0.248
16,GGAAAUAUGAUCCAUCCUGTT against Zfp282,inactive: 1.65
17,CCUUCUAUGCCUCCUACAATT against LOC626359,inactive: -0.562
18,CCUUAAUAAAUCUAGUGGCTT against Stmn3,inactive: 0.0477
19,GGUGAUGCUGGAAUCUUCCTT against 1110030H18Rik,inactive: 0.0193
20,GGAUUAUGAGAAUCAAACCTT against Serpina10,inactive: 1.44
21,CCUCAAGCCCAAGUAAGACTT against Dp1l1,inactive: 0.42
22,GCAAAUAGGGAGGUUCCUGTT against Ypel1,inactive: -0.597
23,GCCUUUUGUACUAAGGUCCTT against 2610041B18Rik,inactive: 0.433
24,CCUUAGACUGUUCAGUCCUTT against 4633402N23Rik,inactive: -0.471
25,GGAACCAAUCUUGGUCUCATT against Tln2,inactive: -0.513
26,CCAACGAUGCUGUCAGAAATT against Gys2,inactive: -1.49

# 2 entries drawn at random from those above, as already listed:
row,Sequence,z-score
5,CCUACAAACCAGAAGAGGUTT against Akr1c19,inactive: 0.291
17,CCUUCUAUGCCUCCUACAATT against LOC626359,inactive: -0.562

# (next part)

row,Sequence,z-score
1,GGAGGAAGAAAUGGUCUGGTT against Tsga8,inactive: -1.65
2,GGCUUUCUCGUUUUGAUAUTT against Nln,inactive: -1.61
3,GGCCUUUAAACAGAUUGAATT against Zfp37,inactive: 1.51
4,CCCUUGAGUCAAAUGUCACTT against BC049730,inactive: 0.14
5,GGCCUUCAGUGACAAAGACTT against Dmrt3,inactive: 0.768
6,CCACUAAUCUUCUUCUACATT against Olfr1311,inactive: 1.24
7,GCCUUAAUGCUUCAAGGUGTT against Hspd1,inactive: 0.477
8,GGAACUUGGGUGAAUAAAUTT against Serpind1,inactive: -1.5
9,GUAUUUCUACUAUGUGGAUTT against C030006K11Rik,inactive: 0.406
10,CCGUGAAUGUGAUAAUCCATT against Adamts8,inactive: 2.5
11,GGCGCAUUCAUGUAUCUUCTT against Olfr908,inactive: -0.455
12,CCUACCUGGUAGCAAGAAATT against Gphn,inactive: -1.18
13,GCCCAUUGUAAUAAAAGCCTT against Dnali1,inactive: 1.6
14,GGCCAUAAACAACCAUUUATT against Ppp1r1b,inactive: -0.065
15,GCUCAUUUGCACAACAUGCTT against Bcl11b,inactive: 0.657
16,GGCGGAAACUCAAGUUCUUTT against Mcoln3,inactive: 1.01
17,GGUUUCUUCUUCUGUUCAUTT against 2310008M10Rik,inactive: -1.92
18,GGCCAAGAAGAAGAAGAGATT against Ttf1,inactive: -1.99
19,CCCAGGUGAGGAUUGAUAATT against Rit2,inactive: -1.61
20,GGAAAUAGCUAAUCAGAAATT against 2610304F09Rik,inactive: -2.71
21,GCAUGUCAUCCACAAAUACTT against Dpm2,inactive: 2.2
22,GCGACCAGGACCGCGUCAATT against Sox3,inactive: 1.84
23,GGUCUUCUAUGGGAUCAUGTT against Entpd6,inactive: 1.17
24,GGACUACCUGUGAAGCAAUTT against 2310020P08Rik,inactive: -0.369
25,CAUCUCUCCACCAAUUCACTT against Lphn3,inactive: 0.0302
26,GCUAACCCUCGUUUAGAAGTT against 2310016F22Rik,inactive: 0.0482

row,Sequence,z-score
1,GGACUAGAAUAUCACAACGTT against 4932408B21Rik,inactive: 0.811
2,CCUUGUCAUUGCACUCCAATT against Tm6sf2,inactive: -0.379
3,GGCAACCAUUAAAUGUUUATT against Trim59,inactive: -0.819
4,GGAGAAAGAAACUCUCAGATT against 2610301B20Rik,inactive: -0.939
5,GGAAGAGUCUAAUUAAAGGTT against Rab27b,inactive: 0.02
6,GCUUGAUCAACAAGUGGAGTT against Nup62,inactive: -1.64
7,GGAUGGUGAUAAAAACAACTT against Tnnc2,inactive: 0.227
8,GGAGAACUUUUUGAUAGAATT against Chek1,inactive: -0.512
9,GGGUCUGCGUGACAAUUACTT against 4930542C12Rik,inactive: 0.697
10,GGAGAAAAAGUUACGUCGATT against Stk38l,inactive: -0.502
11,GGAUGUGACCCACUUUAUATT against Zhx3,inactive: 1.91
12,GGUUACAAAUGAUUGUUCATT against Phxr2,inactive: -0.694
13,GGCCUUCAACAUUGACCGATT against Kcnc4,inactive: 0.13
14,GGUGACUUUCUGAAACUCCTT against Hoxa5,inactive: 1.39
15,GGCUAAGCAACUCUUUCGATT against Sec22l1,inactive: 0.655
16,GGCCUCAUGAAGAACCUUCTT against Pparg,inactive: 0.0186
17,GCUGGUAUACAGAAUAAACTT against Mfn1,inactive: -0.145
18,GGUUUAAUAGACGACAAUGTT against Ube2g1,inactive: -0.676
19,GGAAAUCUUUGAGUUUGAATT against Clca3,inactive: 2
20,GGCCCACCUAUUUCAUCUCTT against Actl7b,inactive: 0.808
21,GGUUGUGACUUCUCAUUUUTT against Ccnb1,inactive: -0.703
22,GGAAGAUAAUGGGAAUUUCTT against Acp2,inactive: 0.839
23,GGGCUACAUUCCUUCCAAUTT against Frk,inactive: -2.18
24,CCUCCCAAGUAAAUUAUUATT against AW210596,inactive: -0.551
25,GCUGUUUGAACUCGCCCGATT against C330016O16Rik,inactive: 0.214
26,GGAAAGUUUACACUAAAAGTT against Copeb,inactive: 0.575

# 6 entries from above, with tabs.
row	Sequence	z-score
8	GGAGAACUUUUUGAUAGAATT against Chek1	inactive: -0.512
13	GGCCUUCAACAUUGACCGATT against Kcnc4	inactive: 0.13
15	GGCUAAGCAACUCUUUCGATT against Sec22l1	inactive: 0.655
17	GCUGGUAUACAGAAUAAACTT against Mfn1	inactive: -0.145
23	GGGCUACAUUCCUUCCAAUTT against Frk	inactive: -2.18
24	CCUCCCAAGUAAAUUAUUATT against AW210596	inactive: -0.551

# Next part:

row,Sequence,z-score
1,GGAGAUUGCUAAUAGCUGUTT against Cldn15,inactive: 1.53
2,CCUAUAUAAACACUCGAAATT against Zbtb5,inactive: -0.185
3,GGGAGUAGAGAUCAAAGGCTT against H2-Bf,inactive: -0.762
4,GGCAGACAUCACAAUGGCUTT against Hemgn,inactive: 2.61
5,CGAUGUUGUAAAUAAUGCATT against Cai,inactive: -0.428
6,GCCCUGCACCAGAAAAACATT against 2310004N11Rik,inactive: -0.441
7,GUUUCUGGAGACGGUGGAGTT against Rpl10a,inactive: -2.29
8,GGUAAAGGAUGCUUUUAAGTT against Olfr801,inactive: 1.45
9,GGAGUCCUAAAGAGUUCUATT against Slc11a1,inactive: -0.278
10,CCUACUAGUGCAUUUGUAATT against Gabarapl2,inactive: 1.66
11,GGUAACGAUGCUGGAAUUCTT against Sdcbp,inactive: -1.68
12,CCCAGGUUGACAAGAACUCTT against Socs7,inactive: -0.289
13,GGUAAAGGUAAACUUAUACTT against V1rd14,inactive: 1.14
14,GGACAGAAUGGAAAUUCUUTT against Efna2,inactive: -0.312
15,GGCAGUGGAGUGUAUGGAUTT against Popdc2,inactive: -1.38
16,GGAAGAAGAUGGAGAUAAATT against Neurod4,inactive: -0.296
17,GGAAUUUGCUGAAUUUAGUTT against Jmjd2c,inactive: 0.638
18,GCGCAGAACCCAGAUGAAGTT against 1110005F07Rik,inactive: 0.994
19,CGUAAGUGGACGACGGUUCTT against Kcnd3,inactive: -1.19
20,GGAAGUUUCCCAUCAGUGATT against Cryab,inactive: -0.396
21,GGGUGACCUUUUGUUUUUATT against Cfl2,inactive: 1.39
22,GGGCCUUACGUCAUUCUCUTT against Dnajb7,inactive: 0.5
23,GGAGUUACCUGGAUAUUAUTT against Car8,inactive: 0.398
24,GGACCUAUUACACACUUGUTT against 2310020P08Rik,inactive: 1
25,GGGCAGGAACAAAAGAAGCTT against Dsc1,inactive: 0.932
26,GGACAAGCAAGAAGGAAUUTT against Polr2j,inactive: -2.77
